Results deposited as PubChem BioAssay AID504744 (Drosophila RNAi Screening Center, 2011)
The screen tested about 23,000 reagents; this is an unselected part of those that have a named target and a result. Over the whole deposit, 98 (0.43%) got an active call. 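Only hit calls are given; the phospho-dAkt signals, z-scores and hit direction were not deposited.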 Names joined by + are all predicted targets of the reagent. No sequences are given here.

Assay: 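Find genes whose loss alters insulin-driven dAkt phosphorylation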 (primary screen)
Cells: Drosophila Kc167 cells
Reagents: long dsRNA against Drosophila genes, 250 ng dsRNA per well of a 384-well plate
Timing: 3 days of knock-down, then overnight serum-free starvation before stimulation
Challenge: bovine insulin at 387 nM for 10 minutes after 12 h without serum
Read-out: 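In-cell antibody fluorescence for phospho-dAkt in each well over DNA-dye signal, with log2 residuals expressed as z-scores adjusted for cell count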
Active means: 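Hit in the insulin screen when the two-replicate mean z-score is more extreme than plus or minus 2.5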

gene knocked down | dsRNA | outcome
Teh1 | DRSC14544 | inactive
Pus10 | DRSC00629 | inactive
CG1092 | DRSC12151 | inactive
Socs44A | DRSC06828 | inactive
Shawl | DRSC02209 | inactive
Shawl | DRSC02748 | inactive
BckdhB | DRSC21183 | inactive
FASN3 | DRSC20882 | inactive
Sox21b | DRSC10025 | inactive
Sox21b | DRSC10634 | inactive
Sox21b | DRSC22788 | inactive
CG2519 | DRSC12312 | inactive
Smvt | DRSC15426 | inactive
CG9631 | DRSC14137 | inactive
CG15919 | DRSC06594 | inactive
Polr1E | DRSC14506 | inactive
Polr1E | DRSC15358 | inactive
CG17124 | DRSC02580 | inactive
Pgi | DRSC07507 | inactive
CG10631 | DRSC02081 | inactive
spn-D | DRSC22641 | inactive
ND-B14 | DRSC07029 | inactive
CG6891 | DRSC20016 | inactive
CG7381 | DRSC16238 | inactive
fax | DRSC11345 | inactive
CG30487 | DRSC05377 | inactive
Syn1 + CG7370 | DRSC22768 | inactive
CG10137 | DRSC02014 | inactive
CG10137 | DRSC02015 | inactive
Blos4 | DRSC10151 | inactive
stw | DRSC04842 | inactive
stw | DRSC04843 | inactive
stw | DRSC22527 | inactive
CG4949 | DRSC19926 | inactive
AIMP1 | DRSC07118 | inactive
Fkbp12 | DRSC07425 | inactive
CG3222 | DRSC10355 | inactive
Vajk2 | DRSC02540 | inactive
CG8813 | DRSC00706 | inactive
mRpL10 | DRSC00312 | inactive
CG10324 | DRSC14230 | inactive
CG5323 | DRSC06929 | inactive
Lrch | DRSC02996 | inactive
CG6966 | DRSC16156 | inactive
bic | DRSC07584 | inactive
CG31673 | DRSC03207 | inactive
Targ3 | DRSC11471 | inactive
fid | DRSC14885 | inactive
fid | DRSC16464 | inactive
CG46339 | DRSC14136 | inactive
ced-6 | DRSC07591 | inactive
Tlk | DRSC17731 | inactive
Tlk | DRSC17835 | inactive
Tlk | DRSC22924 | inactive
Tlk | DRSC22926 | inactive
Tlk | DRSC22938 | inactive
Pgls | DRSC19769 | inactive
Vago | DRSC19833 | inactive
comm | DRSC11336 | inactive
cocoon | DRSC10916 | inactive
kcc | DRSC04316 | inactive
kcc | DRSC04516 | inactive
CG13116 | DRSC02214 | inactive
CG13116 | DRSC21945 | inactive
Cyp6a21 | DRSC07381 | inactive
Ibf2 | DRSC16551 | inactive
DCP1 | DRSC04091 | inactive
fipi | DRSC00465 | inactive
Alp5 | DRSC14269 | inactive
ninaG | DRSC16102 | inactive
Gpdh1 | DRSC03336 | inactive
Gpdh1 | DRSC21666 | inactive
Ugt305A1 | DRSC08541 | inactive
CG1418 | DRSC06447 | inactive
Tsp96F | DRSC14147 | inactive
Gr59e | DRSC04276 | inactive
dare | DRSC07602 | inactive
CG42326 | DRSC06483 | inactive
CG42326 | DRSC06484 | inactive
CG42827 + CG42828 | DRSC16116 | inactive
CG9853 | DRSC12343 | inactive
CG9853 | DRSC22840 | inactive
nod | DRSC18900 | inactive
nod | DRSC20356 | inactive
Dip-B | DRSC16466 | inactive
CG7985 | DRSC14128 | inactive
CG30002 | DRSC05182 | inactive
pwn | DRSC06035 | inactive
lva | DRSC18403 | inactive
CG32006 | DRSC21768 | inactive
side | DRSC14523 | inactive
side | DRSC14716 | inactive
side | DRSC14717 | inactive
side | DRSC14718 | inactive
side | DRSC14721 | inactive
SuUR | DRSC11292 | inactive
lncRNA:roX1 | DRSC21884 | inactive
Cyp313b1 | DRSC16629 | inactive
IFT57 | DRSC00720 | inactive
CG32767 | DRSC18386 | inactive
CG18473 | DRSC16381 | inactive
GC2 | DRSC14476 | inactive
nSMase | DRSC08237 | inactive
PsGEF | DRSC18596 | inactive
Tbcd | DRSC00273 | inactive
ru | DRSC08258 | inactive
uif | DRSC00963 | inactive
uif | DRSC03427 | inactive
Alp11 | DRSC20080 | inactive
CG14194 | DRSC19549 | inactive
LpR1 | DRSC15665 | inactive
LpR1 | DRSC15669 | inactive
LpR1 | DRSC15670 | inactive
Ccdc58 | DRSC10218 | inactive
Muc68Ca | DRSC10312 | inactive
Muc68Ca | DRSC10313 | inactive
CG6893 | DRSC10742 | inactive
CG40341 (retired record) | DRSC01767 | inactive
CG40341 (retired record) | DRSC03750 | inactive
CG15012 | DRSC08465 | inactive
CG13862 | DRSC14712 | inactive
Trs33 | DRSC15990 | inactive
alpha-Est4 | DRSC12616 | inactive
VAChT + ChAT | DRSC13312 | inactive
CG9536 | DRSC03254 | inactive
CG31730 | DRSC01308 | inactive
CG13484 | DRSC10026 | inactive
CG9084 | DRSC07335 | inactive
Fancl | DRSC14550 | inactive
CG9395 | DRSC03218 | inactive
CG34300 | DRSC13977 | inactive
CG34051 | DRSC01739 | inactive
CG13185 | DRSC06310 | inactive
Eaf | DRSC05050 | inactive
Eaf | DRSC06052 | inactive
Eaf | DRSC22028 | inactive
CenG1A | DRSC02538 | inactive
CenG1A | DRSC03505 | inactive
CenG1A | DRSC03506 | inactive
CG12655 | DRSC20678 | inactive
Obp59a | DRSC04160 | inactive
Sh | DRSC19214 | inactive
Sh | DRSC19220 | inactive
Sh | DRSC19785 | inactive
Sh | DRSC20055 | inactive
Sh | DRSC22567 | inactive
Sas-6 | DRSC15061 | inactive
CG15046 | DRSC19622 | inactive
mus81 | DRSC18180 | inactive
mus81 | DRSC18644 | inactive
CG15478 | DRSC18057 | inactive
Ance | DRSC01865 | inactive
BicC | DRSC02005 | inactive
Rab2 | DRSC05017 | inactive
CG11406 | DRSC04010 | inactive
CG11406 | DRSC04108 | inactive
CG5033 | DRSC07410 | inactive
